PubChem BioAssay AID743454, Peter MacCallum Cancer Centre – 2014
Here is one part, drawn at random, of about 18,000 reagents tested. 450 of all reagents (2.5%) were called active. 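Single biological run; no consistent viability z cut-off exists, so the class columns, not z-scores, define the calls.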 The numbers tell different reagents against one gene apart.

- Assay: 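Knock-downs lowering viability or raising caspase 3/7 activity in vorinostat-treated resistant cells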 (primary screen)
- System: human HCT116-VR colon cancer cells, selected for vorinostat resistance
- Reagents: siRNA pool against human genes, 40 nM siRNA pool
- Duration: vorinostat for 24 h, read-out about 72 h after transfection
- Challenge: vorinostat at 2.5 µM final
- Measurement: 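Cell viability by CellTiter-Fluor and caspase 3/7 activity by luminescence, each scaled to mock wells per plate, duplicates averaged, then robust z-scored over all plates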
- Reading the numbers: viability robust z-score: higher = more viable cells than screen typical; caspase robust z-score: higher = more caspase 3/7 activity than screen typical
- Hit rule: 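Hits are knock-downs in viability class RV1/RV2 or caspase class CA1/CA2, excluding ones that killed cells in the no-drug cell-count arm; hits then retested with single siRNAs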

How did the screen score HESX1?
viability hit class: no change; caspase hit class: no change; viability robust z-score: -0.74; caspase robust z-score: 4.2; call: inactive

For CYP2D6, how do the results read?
viability hit class: no change; caspase hit class: no change; viability robust z-score: -1.91; caspase robust z-score: 1.79; call: inactive

What did the screen give for ZNF574?
viability hit class: no change; caspase hit class: no change; viability robust z-score: -0.56; caspase robust z-score: 1.54; call: inactive

With RNF19B, how do the results read?
viability hit class: no change; caspase hit class: CA2 (caspase activation); viability robust z-score: -1.34; caspase robust z-score: 7.48; call: active

For ZNF223, how do the results read?
viability hit class: no change; caspase hit class: no change; viability robust z-score: -0.62; caspase robust z-score: 3.17; call: inactive

Which result is listed for MICALL2?
viability hit class: no change; caspase hit class: CA1 (caspase activation); viability robust z-score: 0.62; caspase robust z-score: 5.14; call: active

With MMEL1, what was measured?
viability hit class: no change; caspase hit class: no change; viability robust z-score: -1.41; caspase robust z-score: 1.49; call: inactive

For PIP5K1C, how do the results read?
viability hit class: no change; caspase hit class: no change; viability robust z-score: 1; caspase robust z-score: -0.85; call: inactive

How did the screen score GTF2A1L?
viability hit class: no change; caspase hit class: no change; viability robust z-score: 0.56; caspase robust z-score: -0.71; call: inactive

With H2AC4, how do the results read?
viability hit class: no change; caspase hit class: no change; viability robust z-score: -0.83; caspase robust z-score: -0.88; call: inactive

How did the screen score TXNDC2?
viability hit class: no change; caspase hit class: no change; viability robust z-score: -0.69; caspase robust z-score: 0.68; call: inactive

What did the screen give for KRTAP12-2?
viability hit class: no change; caspase hit class: no change; viability robust z-score: 0.37; caspase robust z-score: 3; call: inactive

What did the screen give for IFNA1?
viability hit class: no change; caspase hit class: no change; viability robust z-score: 0.28; caspase robust z-score: -0.75; call: inactive

With GPLD1, what does the deposit list?
viability hit class: no change; caspase hit class: no change; viability robust z-score: 0.19; caspase robust z-score: -0.01; call: inactive

What is on record for MYCBP?
viability hit class: no change; caspase hit class: no change; viability robust z-score: 0.25; caspase robust z-score: -0.34; call: inactive

Which result is listed for ITGA7?
viability hit class: no change; caspase hit class: no change; viability robust z-score: -0.48; caspase robust z-score: -0.56; call: inactive

What is on record for LCE2C?
viability hit class: no change; caspase hit class: no change; viability robust z-score: -0.64; caspase robust z-score: 1.73; call: inactive

How did the screen score OR1D5?
viability hit class: no change; caspase hit class: no change; viability robust z-score: 1.73; caspase robust z-score: -0.36; call: inactive

What is on record for CENPI?
viability hit class: no change; caspase hit class: no change; viability robust z-score: -0.9; caspase robust z-score: -1.21; call: inactive

How did the screen score C1QTNF8?
viability hit class: no change; caspase hit class: no change; viability robust z-score: -1.64; caspase robust z-score: 3.91; call: inactive

With DEFB110 #1, what does the deposit list?
viability hit class: no change; caspase hit class: no change; viability robust z-score: 0.89; caspase robust z-score: -0.38; call: inactive

For DEFB110 #2, how do the results read?
viability hit class: no change; caspase hit class: no change; viability robust z-score: 0.72; caspase robust z-score: 0.2; call: inactive

Just “viability robust z-score” (2 entries from above):
MMEL1 = -1.41
PIP5K1C = 1
